Test results from PMC7862700.
The entries are a selection whose mix differs from that of the whole data set. At the low end of the ranking, values are background and their order means little.

biological target: SPI1 (UniProt P17947); test: DAPPL (digital affinity profiling via proximity ligation, sequencing); conditions: 10 mM Tris-HCl pH 7.5, 50 mM NaCl, 1 mM DTT, 4% glycerol, room temperature, 30 min; GST-TFs on glutathione beads, 16-mer random dsDNA library, 0.1% …; high values mean tight binding; double strand, one strand shown; scale: fold enrichment (6-mer frequency, TF over GST control)

Row | Sequence | binding signal
1 | ATCAGC | 0.943
2 | GCTATT | 1.3
3 | GAACCC | 1.16
4 | AACTAA | 1.38
5 | CTCTAA | 1.35
6 | TGCTGT | 0.99
7 | ACGAAC | 1.1
8 | CTTTCT | 1.67
9 | TTCATA | 1.18
10 | CGCTAG | 1.09
11 | TACTGC | 1.24
12 | GTCCCT | 1.38
13 | CAGAAT | 0.965
14 | TACCCG | 1.42
15 | ATCTCT | 1.27
16 | CCTATC | 1.14
17 | CTGACT | 1.27
18 | AGCCTC | 1.26

Row | Sequence | binding signal
19 | CTGCTA | 1.53
20 | CTGTAA | 1.11
21 | TCACTT | 2.11
22 | CGAAAC | 1.21
23 | AAGCAC | 1.18
24 | CTGCCA | 1.24
25 | CTTGCC | 1.38
26 | TTGTCC | 1.17
27 | CACGCT | 1.33
28 | AAATTA | 1.22
29 | TAATAA | 1.09
30 | GGTCCC | 1.1
31 | TCTTTG | 1.21
32 | CAACAA | 1.02
33 | ACTTAA | 1.24
34 | AAATAT | 1.32
35 | TACATT | 1.14
